Laboratory results as given in publication PMC6853915.
Results are given in words; binding and its absence hold for the method and conditions named. Some binding calls cover weakened binding; strength is not graded here.

Chains of the proteins cited; added tags and fusions are not shown. Residues count along the entry.
UniProt P30405, residues 30-207: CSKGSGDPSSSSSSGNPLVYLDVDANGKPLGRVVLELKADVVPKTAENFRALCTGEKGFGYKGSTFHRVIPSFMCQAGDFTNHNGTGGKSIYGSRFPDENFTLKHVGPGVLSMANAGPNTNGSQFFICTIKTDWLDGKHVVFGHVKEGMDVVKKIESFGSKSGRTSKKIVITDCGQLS
UniProt Q99714: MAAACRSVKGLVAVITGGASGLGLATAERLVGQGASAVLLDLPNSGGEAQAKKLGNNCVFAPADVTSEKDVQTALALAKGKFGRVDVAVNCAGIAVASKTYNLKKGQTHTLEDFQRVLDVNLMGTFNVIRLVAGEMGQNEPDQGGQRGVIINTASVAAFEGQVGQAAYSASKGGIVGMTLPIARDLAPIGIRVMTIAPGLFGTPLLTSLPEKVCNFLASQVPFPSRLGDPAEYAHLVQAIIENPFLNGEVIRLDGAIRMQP

Molecular target: cyclophilin D (human) (UniProt P30405)
Assay: SPR; as a1, but running buffer without added K+, Mg2+ or Ca2+ (0 mM; 10 mM HEPES, 200 μg/ml BSA, 5 mM Na+), pH 7.4 or 7.8, 25 °C; both purified

- binding: binds weakly
Substance: 17beta-hydroxysteroid dehydrogenase type 10 (from UniProt Q99714 1-261) (enzyme)
